# Taken from: PubChem BioAssay AID686943 (Drosophila RNAi Screening Center, 2013)
# Purpose: 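Knockdowns that increase or decrease active ERK after insulin receptor stimulation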 (primary screen)
# Cell system: Drosophila S2R+ haemocyte-like cells expressing YFP-tagged ERK (Rolled)
# Knock-down reagent: long dsRNA against Drosophila genes
# Treatment: insulin stimulation versus unstimulated cells; dose and duration not given
# Measurement: 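Per-plate z-scores of phospho-ERK immunostaining normalised to YFP-tagged ERK, measured with and without insulin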
# Direction: replicate 1, z-score of dpERK with insulin and replicate 2, z-score of dpERK with insulin: higher = more active ERK per ERK-YFP after insulin; replicate 1, z-score of dpERK under basal conditions: higher = more basal active ERK per ERK-YFP
# In all, the deposit lists about 23,000 reagents; shown is an unselected part of those with a known target gene and a result. 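Extra replicates exist only for a retested subset of genes; insulin dose and duration not given; both raised and lowered dpERK matter.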 Further read-outs or replicates are left out here. No sequences are given here. Not given: the amount of reagent, the time to read-out.
predicted target,DRSC id,"replicate 1, z-score of dpERK with insulin","replicate 2, z-score of dpERK with insulin","replicate 1, z-score of dpERK under basal conditions"
"SerRS-m (Seryl-tRNA synthetase, mitochondrial)",DRSC14096,-0.26,0.38,0.51
CBP (sarcoplasmic calcium-binding protein),DRSC17746,1.17,0.29,-0.16
GstO3 (Glutathione S transferase O3),DRSC10710,0.01,0.5,-0.04
SCCRO3 (Squamous cell carcinoma-related oncogene 3),DRSC06359,0.43,-0.03,1.26
Suv3 (Suv3 helicase),DRSC12335,-0.38,-0.75,-0.75
CG33969,DRSC11777,0.19,-0.24,-0.39
Nep2 (Neprilysin 2),DRSC12126,0.84,0.07,1.01
Nep2 (Neprilysin 2),DRSC21398,1.12,0.84,-0.3
Trxr2 (Thioredoxin reductase 2),DRSC11900,0.28,0.63,0.35
BBS5 (Bardet-Biedl syndrome 5),DRSC12168,0.41,0.74,0.06
CG17027,DRSC10238,-0.43,-0.38,-0.44
CG31268,DRSC13203,-0.5,0.28,1.75
Cdc42 (Cell division cycle 42),DRSC20228,-1.16,-2.65,1.53
ATPCL (ATP citrate lyase),DRSC05913,1.06,0.45,0.31
CG18731,DRSC15377,-0.25,2.62,-0.17
Nup93-1 (Nucleoporin 93kD-1),DRSC19344,0.32,1.47,-1.35
CG6244,DRSC10609,0.19,-0.59,0.39
CG5928,DRSC18391,0.49,0.06,0.1
CG13159,DRSC06283,-0.04,-0.11,-0.32
fd96Cb (forkhead domain 96Cb),DRSC16947,-0.07,-0.03,-0.1
C901,DRSC19351,0.31,0.38,-2.26
ocm (over compensating males),DRSC04360,0.17,0.55,-1.43
CG8870,DRSC16452,0.74,0.5,1.14
ssh (slingshot),DRSC16730,1.12,0.12,-0.52
inaE (inactivation no afterpotential E),DRSC19376,0.42,1.25,0.14
inaE (inactivation no afterpotential E),DRSC19377,-0.99,0.31,-0.19
inaE (inactivation no afterpotential E),DRSC19379,1.02,0.98,-0.93
inaE (inactivation no afterpotential E),DRSC19726,0.9,1.84,0.49
CG18336,DRSC06334,0.22,-0.48,-0.14
CG31021,DRSC22319,-0.02,-1.72,0.14
CG13409,DRSC14585,-1.32,0.18,-0.32
betaTub56D (beta-Tubulin at 56D),DRSC07583,-1.34,-0.57,0.94
CG15561,DRSC15100,1.43,0.09,0.11
maca,DRSC15738,-0.93,-1.46,0.35
Arfrp1 (ADP-ribosylation factor related protein 1),DRSC18417,0.34,-0.55,0.15
CG41099,DRSC21049,-0.74,-0.23,-0.46
CG41099,DRSC21051,0.14,-0.07,-1.02
p130CAS,DRSC07862,1.04,1.19,0.15
p130CAS,DRSC08257,0.87,1.37,-0.2
CG10182,DRSC14202,-0.8,0.01,0.2
nkt (noktochor),DRSC10144,0.25,0.49,-0.11
mbo (members only),DRSC16123,0.45,2.54,1.24
CG31418,DRSC21780,0.01,-0.36,-0.48
CG15772,DRSC18078,-0.82,-0.07,0.79
eIF2Bepsilon (eukaryotic translation initiation factor 2B subunit epsilon),DRSC18769,0.06,0.24,-0.51
CG12375,DRSC02163,0.34,0.51,-0.04
CG14302,DRSC14781,-0.35,0.07,0.6
Slimp (Seryl-tRNA synthetase-like insect mitochondrial protein),DRSC13656,-0.48,0.33,-2.51
tHMG2 (testis-enriched HMG-box-containing protein 2),DRSC16182,1.02,0.4,1.26
CG4622,DRSC04479,0.37,0.31,0.6
vret (vreteno),DRSC15640,-0.41,-0.06,-0.69
retn (retained),DRSC04679,0,0.27,-0.66
CG4957,DRSC02793,-0.19,0.06,1.82
CG13113,DRSC02211,-0.28,-0.13,0.04
CG6012,DRSC02921,0.01,0.27,0.7
CG32407,DRSC09789,-0.87,-0.06,0.74
Kap-alpha1 (karyopherin alpha1),DRSC11356,-2.03,-0.12,-0.29

9 entries from above, showing only “replicate 1, z-score of dpERK under basal conditions”:
CG13159 [DRSC06283] = -0.32
fd96Cb (forkhead domain 96Cb) [DRSC16947] = -0.1
C901 [DRSC19351] = -2.26
ocm (over compensating males) [DRSC04360] = -1.43
CG8870 [DRSC16452] = 1.14
ssh (slingshot) [DRSC16730] = -0.52
inaE (inactivation no afterpotential E) [DRSC19376] = 0.14
inaE (inactivation no afterpotential E) [DRSC19377] = -0.19
inaE (inactivation no afterpotential E) [DRSC19379] = -0.93
